Test results taken from paper PMC5601180, “Uptake and metabolism of sulphated steroids by the blood–brain barrier in the adult male rat” (Journal of Neurochemistry, 2017).

Tests used:
[1] = standard added to rat brain homogenate, n = 4
[2] = Bilateral brain perfusion, capillary depletion and separation of free and sulphated 3H-steroids; format: in vivo, rat; details: after perfusion with the 3H-steroid sulphate
Procedure: Brains were bilaterally perfused for 0.5 min with ^3H‐labelled DHEAS 1.25 or 6.0 μCi (0.046 or 0.221 MBq)/mL (13.5 or 64.9 nM) or PregS 1.0 μCi (0.037 MBq)/mL (47.6 nM). The hindbrain was removed and each hemisphere homogenised in 2 vols (w/v) buffer containing (in mM) NaCl 141, KCl 4, NaH2PO4 1, CaCl2 2.8, MgCl2 1, HEPES 10, D‐glucose 10, pH 7.4. A sample of the homogenate of the whole right hemisphere was removed for scintillation counting, and the remainder retained as the whole brain homogenate.
The left hemisphere homogenate was separated into capillary‐enriched and capillary‐depleted fractions by the method of Triguero et al. (1990). For this, an equal volume of 26% dextran (w/w) solution was added to the homogenate and a sample taken for liquid scintillation counting before centrifugation at 5300 g for 15 min at 4°C. The upper layer was taken as the capillary‐depleted fraction and the pellet as the capillary‐enriched fraction.
Before extraction, fractions were sonicated in 5 vols ice‐cold, 5 mM potassium phosphate buffer, pH 7. Small portions (150 μL) were removed for measurement of protein content (Bradford 1976) and total radioactivity. For the latter, homogenate was solubilised (15 min, 20°C) in 10 vols Soluene then bleached (2 h, 50°C) with 0.3 vol hydrogen peroxide before counting in Ecoscint H containing Triton X‐100 (6% v/v), glacial acetic acid (0.6% v/v) and butylated hydroxytoluene (2% w/v). The remainder of each homogenate was extracted as described in detail elsewhere (Ebner et al. 2006; Sujkovic et al. 2009), to give free steroid and steroid sulphate fractions. First, homogenates were extracted into 20 vols ethanol containing acetic acid 3% (v/v). After centrifugation (28 000 g, 30 min, 25°C) to remove denatured protein, the extracts were delipidated by partitioning three times against 10 vols isooctane. Extracts were dried down under vacuum and redissolved in ethanol, which was then diluted to 20% v/v in 5 mM potassium phosphate buffer, pH 7.0 at a total volume of 20 ml. Separation of free and sulphated steroids was achieved by passage through a 60 mg Oasis MAX® cartridge. After washing the cartridge with 5 mL ethanol at 20% v/v in ammonium acetate (20 mM, pH 7), free steroids were eluted in 4 mL ethyl acetate. Passage of 20 mL ethanol at 60% v/v in formate/pyridine buffer (20 mM, pH 3) eluted any steroid glucuronides present. Finally, steroid sulphates were eluted in 30 mL 60% v/v ethanol containing ammonium carbonate 1% (w/v). To measure the radioactivity of each fraction, portions were dried down and then redissolved in Ecoscint H for counting. The remainder was dried down, redissolved in ethanol 96% v/v and stored at −20°C for subsequent analysis by TLC.

For `C[C@]12CC[C@H](OS(=O)(=O)O)CC1=CCC1C2CC[C@]2(C)C(=O)CCC12` (stereo partly shown) [DHEAS, dehydroepiandrosterone sulphate], the “recovery into free steroid (FS) fraction” value [1] was 1.89 ± 0.28%, the “recovery into steroid glucuronide (SG) fraction” value [1] was 0.18 ± 0.01% and the “recovery into steroid sulphate (SS) fraction” value [1] was 74.15 ± 0.92%. The “extraction efficiency for total radioactivity from capillary” value [2] was 80.0 ± 1.3% and the “extraction efficiency for total radioactivity from parenchyma” value [2] was 98.6 ± 8.2%.

With `CC(=O)[C@H]1CCC2C3CC=C4C[C@@H](OS(=O)(=O)O)CC[C@]4(C)C3CC[C@@]21C` (stereo partly shown) [PregS, pregnenolone sulphate] the “recovery into free steroid (FS) fraction” value [1] was 6.84 ± 0.69%, the “recovery into steroid glucuronide (SG) fraction” value [1] was 0.13 ± 0.02% and the “recovery into steroid sulphate (SS) fraction” value [1] was 42.03 ± 1.29%. For the same compound, the “extraction efficiency for total radioactivity from capillary” value [2] was 76.0 ± 2.3% and the “extraction efficiency for total radioactivity from parenchyma” value [2] was 88.7 ± 4.3%.

In the case of `CC(=O)[C@H]1CC[C@H]2[C@@H]3CC=C4C[C@@H](O)CC[C@]4(C)[C@H]3CC[C@]12C` [^3H‐Preg, [7‐^3H]‐pregnenolone, reference compound], the “recovery into free steroid (FS) fraction” value [1] is reported as 102.01 ± 4.00%, the “recovery into steroid glucuronide (SG) fraction” value [1] is reported as 2.26 ± 0.24% and the “recovery into steroid sulphate (SS) fraction” value [1] is reported as 0.25 ± 0.03%.
